According to publication PMC8855833:
No constants are given. Whether binding was seen depends on the method and setting. Binding seen in cells or lysates may run through a third protein. Some results given as binding are weak or reduced against the parent protein; the word gives no strength.

By UniProt entry, the sequences of proteins in these tests, tags left out.
UniProt P33534: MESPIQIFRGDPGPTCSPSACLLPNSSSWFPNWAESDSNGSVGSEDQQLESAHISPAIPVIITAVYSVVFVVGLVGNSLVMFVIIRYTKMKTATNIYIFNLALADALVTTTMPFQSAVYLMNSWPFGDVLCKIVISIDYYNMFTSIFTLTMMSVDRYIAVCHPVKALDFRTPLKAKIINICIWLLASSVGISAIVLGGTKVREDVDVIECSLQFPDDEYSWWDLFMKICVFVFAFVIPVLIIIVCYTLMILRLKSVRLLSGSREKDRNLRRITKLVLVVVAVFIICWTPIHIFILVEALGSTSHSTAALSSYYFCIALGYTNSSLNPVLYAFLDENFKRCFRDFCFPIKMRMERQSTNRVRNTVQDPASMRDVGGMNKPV

Legend:
[1] = molecular target: κ-opioid receptor (mouse (endogenous in DRG)) (UniProt P33534); experiment: proximity ligation; Duolink In Situ Red kit on DRG sections or isolated DRG neurons fixed with 4% PFA; rabbit anti-AC3 and mouse anti-KOR-1 antibodies at 4°C overnight; endogenous proteins
[2] = molecular target: κ-opioid receptor (mouse (endogenous in DRG)) (UniProt P33534); experiment: co-IP; mouse DRG lysate (300 mM NaCl, 50 mM Tris-HCl, 1% Triton X-100, 10% glycerol); protein G sepharose with mouse anti-KOR-1 antibody, normal mouse IgG as negative control, 4°C overnight; blotted with anti-AC3

B1: type III adenylyl cyclase (enzyme, UniProt Q8VHH7 1-1145)
chain: MPRNQGFSDPEYSAEYSAEYSVSLPSDPDRGVGRTHEISVRNSGSCLCLPRFMRLTFVPESLENLYQTYFKRQRHETLLVLVVFAALFDCYVVVMCAVVFSSDKLAPLMVAGFGLVLDIILFVLCKKGLLPDRVSRKVVPYLLWLLISAQIFSYLGLNFSRAHAASDTVGWQAFFVFSFFITLPLSLSPIVIISVVSCVVHTLVLGVTVAQQQQDELEGMQLLREILANVFLYLCAIIVGIMSYYMADRKHRKAFLEARQSLEVKMNLEEQSQQQENLMLSILPKHVADEMLKDMKKDESQKDQQQFNTMYMYRHENVSILFADIVGFTQLSSACSAQELVKLLNELFARFDKLAAKYHQLRIKILGDCYYCICGLPDYREDHAVCSILMGLAMVEAISYVREKTKTGVDMRVGVHTGTVLGGVLGQKRWQYDVWSTDVTVANKMEAGGIPGRVHISQSTMDCLKGEFDVEPGDGGSRCDYLDEKGIETYLIIASKPEVKKTAQNGLNGSAVPNGAPASSKPSSPALIETKEPNGSAHASGSTSEEAEEQEAQADNPSFPNPRRRLRLQDLADRVVDASEDEHELNQLLNEALLERESAQVVKKRNTFLLTMRFMDPEMETRYSVEKEKQSGAAFSCSCVVLFCTAMVEILIDPWLMTNYVTFVVGEVLLLILTICSMAAIFPRSFPKKLVAFSSWIDRTRWARNTWAMLAIFILVMANVVDMLSCLQYYMGPYNMTAGMELDGGCMENPKYYNYVAVLSLIATIMLVQVSHMVKLTLMLLVTGAVTALNLYAWCPVFDEYDHKRFQEKDSPMVALEKMQVLATPGLNGTDSRLPLVPSKYSMTVMMFVMMLSFYYFSRHVEKLARTLFLWKIEVHDQKERVYEMRRWNEALVTNMLPEHVARHFLGSKKRDEELYSQSYDEIGVMFASLPNFADFYTEESINNGGIECLRFLNEIISDFDSLLDNPKFRVITKIKTIGSTYMAASGVTPDVNTNGFTSSSKEEKSDKERWQHLADLADFALAMKDTLTNINNQSFNNFMLRIGMNKGGVLAGVIGARKPHYDIWGNTVNVASRMESTGVMGNIQVVEETQVILREYGFRFVRRGPIFVKGKGELLTFFLKGRDRPAAFPNGSSVTLPHQVVDNP
- binding [1]: binds
- binding [2]: binds
